Results as given in the supplement of paper PMC10849652.
This is one part of the list.

By UniProt entry, the sequences of proteins in these tests, tags left out. Where a name states a change or a piece, a line headed by the entry shows the natural chain unless it says otherwise.
UniProt Q96N67: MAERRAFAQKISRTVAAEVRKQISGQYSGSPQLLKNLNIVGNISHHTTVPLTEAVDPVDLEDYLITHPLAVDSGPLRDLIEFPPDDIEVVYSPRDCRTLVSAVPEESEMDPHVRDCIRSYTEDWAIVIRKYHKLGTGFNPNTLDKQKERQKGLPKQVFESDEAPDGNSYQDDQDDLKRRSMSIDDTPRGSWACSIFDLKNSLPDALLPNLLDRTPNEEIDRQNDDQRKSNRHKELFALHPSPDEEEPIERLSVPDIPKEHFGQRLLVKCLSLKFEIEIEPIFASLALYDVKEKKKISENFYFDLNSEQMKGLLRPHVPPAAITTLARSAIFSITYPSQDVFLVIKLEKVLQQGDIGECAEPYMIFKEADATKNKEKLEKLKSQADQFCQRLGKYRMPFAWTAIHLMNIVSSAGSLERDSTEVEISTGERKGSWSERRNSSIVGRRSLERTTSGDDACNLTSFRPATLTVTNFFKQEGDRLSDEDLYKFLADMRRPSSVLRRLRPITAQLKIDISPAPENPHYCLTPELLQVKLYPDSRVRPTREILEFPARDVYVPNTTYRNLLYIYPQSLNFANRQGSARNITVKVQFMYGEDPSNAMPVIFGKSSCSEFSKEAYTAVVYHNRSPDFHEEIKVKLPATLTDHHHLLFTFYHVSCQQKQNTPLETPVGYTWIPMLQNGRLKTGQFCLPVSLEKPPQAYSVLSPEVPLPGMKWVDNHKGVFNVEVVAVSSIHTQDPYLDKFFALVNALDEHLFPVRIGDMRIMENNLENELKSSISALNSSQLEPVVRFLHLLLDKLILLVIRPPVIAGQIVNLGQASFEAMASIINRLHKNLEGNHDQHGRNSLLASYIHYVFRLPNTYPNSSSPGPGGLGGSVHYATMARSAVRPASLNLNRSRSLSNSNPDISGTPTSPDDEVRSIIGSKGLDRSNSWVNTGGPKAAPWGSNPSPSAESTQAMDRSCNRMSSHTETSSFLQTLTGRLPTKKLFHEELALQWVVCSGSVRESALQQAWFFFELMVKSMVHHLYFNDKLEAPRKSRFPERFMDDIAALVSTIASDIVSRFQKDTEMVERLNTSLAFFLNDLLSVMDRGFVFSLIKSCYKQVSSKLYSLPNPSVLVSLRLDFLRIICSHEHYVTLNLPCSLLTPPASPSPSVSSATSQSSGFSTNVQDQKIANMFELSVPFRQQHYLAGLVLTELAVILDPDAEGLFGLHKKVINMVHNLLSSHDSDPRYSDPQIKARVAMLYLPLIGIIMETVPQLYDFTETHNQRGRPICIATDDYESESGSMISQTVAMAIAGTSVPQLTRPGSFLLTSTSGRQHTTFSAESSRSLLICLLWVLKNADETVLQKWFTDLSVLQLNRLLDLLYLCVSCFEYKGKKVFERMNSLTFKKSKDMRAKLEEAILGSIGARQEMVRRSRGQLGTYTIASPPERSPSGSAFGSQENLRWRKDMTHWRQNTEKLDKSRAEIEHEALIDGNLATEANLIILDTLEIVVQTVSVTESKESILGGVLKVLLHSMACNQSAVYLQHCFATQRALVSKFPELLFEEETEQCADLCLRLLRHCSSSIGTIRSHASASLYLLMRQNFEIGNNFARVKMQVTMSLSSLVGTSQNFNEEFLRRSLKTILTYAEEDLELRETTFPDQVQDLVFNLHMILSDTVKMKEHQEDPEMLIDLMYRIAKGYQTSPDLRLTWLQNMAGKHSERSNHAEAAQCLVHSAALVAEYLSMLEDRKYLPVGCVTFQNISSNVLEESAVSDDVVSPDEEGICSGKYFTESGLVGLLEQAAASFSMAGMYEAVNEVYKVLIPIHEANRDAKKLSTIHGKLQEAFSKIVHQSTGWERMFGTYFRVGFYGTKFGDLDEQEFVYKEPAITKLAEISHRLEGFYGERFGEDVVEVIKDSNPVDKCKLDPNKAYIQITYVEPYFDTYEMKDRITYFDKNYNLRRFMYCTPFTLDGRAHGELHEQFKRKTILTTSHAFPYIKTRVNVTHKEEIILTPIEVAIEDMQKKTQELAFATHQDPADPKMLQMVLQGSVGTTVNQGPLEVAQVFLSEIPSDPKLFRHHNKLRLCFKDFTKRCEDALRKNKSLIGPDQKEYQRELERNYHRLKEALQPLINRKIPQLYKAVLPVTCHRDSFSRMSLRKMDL
UniProt Q9BZQ6: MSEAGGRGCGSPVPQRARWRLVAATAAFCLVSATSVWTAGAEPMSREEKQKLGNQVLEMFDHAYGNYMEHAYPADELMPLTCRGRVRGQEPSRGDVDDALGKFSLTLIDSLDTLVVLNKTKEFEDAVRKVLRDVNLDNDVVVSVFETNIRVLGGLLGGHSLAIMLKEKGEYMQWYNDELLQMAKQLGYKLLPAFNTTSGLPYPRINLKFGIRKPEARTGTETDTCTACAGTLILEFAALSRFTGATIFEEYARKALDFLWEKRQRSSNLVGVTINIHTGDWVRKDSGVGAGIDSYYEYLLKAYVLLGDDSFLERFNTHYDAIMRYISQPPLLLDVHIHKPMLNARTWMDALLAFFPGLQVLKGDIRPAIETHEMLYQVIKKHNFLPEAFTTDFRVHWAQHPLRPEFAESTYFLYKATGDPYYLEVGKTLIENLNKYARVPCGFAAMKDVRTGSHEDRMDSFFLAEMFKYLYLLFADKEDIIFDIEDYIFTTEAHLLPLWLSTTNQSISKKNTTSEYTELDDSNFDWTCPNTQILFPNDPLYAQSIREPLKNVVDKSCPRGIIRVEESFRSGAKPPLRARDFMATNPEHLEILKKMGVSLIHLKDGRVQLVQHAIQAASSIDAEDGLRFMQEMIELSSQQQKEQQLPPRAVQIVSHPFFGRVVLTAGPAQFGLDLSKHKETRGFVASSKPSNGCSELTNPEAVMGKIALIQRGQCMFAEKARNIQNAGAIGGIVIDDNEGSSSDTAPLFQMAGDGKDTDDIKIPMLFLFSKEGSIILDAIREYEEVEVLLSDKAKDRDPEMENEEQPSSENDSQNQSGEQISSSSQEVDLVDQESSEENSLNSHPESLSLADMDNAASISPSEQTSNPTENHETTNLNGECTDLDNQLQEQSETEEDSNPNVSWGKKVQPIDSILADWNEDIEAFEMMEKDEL
UniProt P25685, whole entry, looked up: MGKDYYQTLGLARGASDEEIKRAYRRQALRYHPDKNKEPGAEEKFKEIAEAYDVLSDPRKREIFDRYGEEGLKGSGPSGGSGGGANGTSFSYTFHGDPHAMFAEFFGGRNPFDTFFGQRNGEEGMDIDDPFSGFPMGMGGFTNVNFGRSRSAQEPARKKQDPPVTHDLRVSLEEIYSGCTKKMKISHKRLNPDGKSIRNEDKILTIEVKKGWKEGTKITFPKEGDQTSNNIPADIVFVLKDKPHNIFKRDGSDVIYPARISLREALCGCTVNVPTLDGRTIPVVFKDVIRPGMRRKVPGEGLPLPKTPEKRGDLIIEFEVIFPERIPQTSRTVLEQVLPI
UniProt P23919: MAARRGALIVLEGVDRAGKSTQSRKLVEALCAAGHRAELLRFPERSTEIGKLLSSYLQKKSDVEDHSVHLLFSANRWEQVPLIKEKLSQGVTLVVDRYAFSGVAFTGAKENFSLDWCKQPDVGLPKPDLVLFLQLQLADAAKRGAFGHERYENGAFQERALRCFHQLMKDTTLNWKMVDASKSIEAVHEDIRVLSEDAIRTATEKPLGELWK
UniProt Q7L8W6: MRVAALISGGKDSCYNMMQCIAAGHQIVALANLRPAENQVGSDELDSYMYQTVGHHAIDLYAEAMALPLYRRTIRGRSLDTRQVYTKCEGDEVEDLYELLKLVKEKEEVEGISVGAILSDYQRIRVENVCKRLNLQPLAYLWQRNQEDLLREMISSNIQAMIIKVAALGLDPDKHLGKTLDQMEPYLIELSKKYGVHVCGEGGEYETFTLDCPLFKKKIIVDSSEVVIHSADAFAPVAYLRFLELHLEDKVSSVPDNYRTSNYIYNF
UniProt Q02487, whole entry, looked up: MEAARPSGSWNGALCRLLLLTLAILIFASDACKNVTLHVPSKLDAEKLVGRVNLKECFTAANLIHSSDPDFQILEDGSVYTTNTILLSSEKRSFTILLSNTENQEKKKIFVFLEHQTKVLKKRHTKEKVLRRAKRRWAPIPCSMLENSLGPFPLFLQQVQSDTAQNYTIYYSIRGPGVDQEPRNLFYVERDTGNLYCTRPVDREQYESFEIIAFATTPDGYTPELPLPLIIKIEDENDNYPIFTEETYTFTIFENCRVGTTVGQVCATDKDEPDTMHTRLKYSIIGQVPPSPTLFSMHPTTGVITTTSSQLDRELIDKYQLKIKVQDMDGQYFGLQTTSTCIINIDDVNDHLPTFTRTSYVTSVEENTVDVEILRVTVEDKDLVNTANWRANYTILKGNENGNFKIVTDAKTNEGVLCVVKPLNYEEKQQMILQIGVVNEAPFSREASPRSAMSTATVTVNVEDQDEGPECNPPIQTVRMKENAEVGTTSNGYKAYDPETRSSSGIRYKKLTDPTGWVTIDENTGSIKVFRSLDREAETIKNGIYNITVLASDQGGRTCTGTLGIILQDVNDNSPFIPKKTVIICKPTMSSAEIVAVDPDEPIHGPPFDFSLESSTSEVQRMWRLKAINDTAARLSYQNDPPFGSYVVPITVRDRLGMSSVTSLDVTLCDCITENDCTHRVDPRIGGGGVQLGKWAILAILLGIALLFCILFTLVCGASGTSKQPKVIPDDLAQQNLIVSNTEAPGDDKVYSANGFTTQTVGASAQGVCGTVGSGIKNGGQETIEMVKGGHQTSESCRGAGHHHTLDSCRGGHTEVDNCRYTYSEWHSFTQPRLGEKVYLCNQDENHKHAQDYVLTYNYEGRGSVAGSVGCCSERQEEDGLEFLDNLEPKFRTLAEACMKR
UniProt Q9NP97, whole entry, looked up: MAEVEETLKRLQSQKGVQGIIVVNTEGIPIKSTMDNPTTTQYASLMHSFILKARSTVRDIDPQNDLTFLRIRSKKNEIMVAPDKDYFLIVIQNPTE
UniProt Q13217: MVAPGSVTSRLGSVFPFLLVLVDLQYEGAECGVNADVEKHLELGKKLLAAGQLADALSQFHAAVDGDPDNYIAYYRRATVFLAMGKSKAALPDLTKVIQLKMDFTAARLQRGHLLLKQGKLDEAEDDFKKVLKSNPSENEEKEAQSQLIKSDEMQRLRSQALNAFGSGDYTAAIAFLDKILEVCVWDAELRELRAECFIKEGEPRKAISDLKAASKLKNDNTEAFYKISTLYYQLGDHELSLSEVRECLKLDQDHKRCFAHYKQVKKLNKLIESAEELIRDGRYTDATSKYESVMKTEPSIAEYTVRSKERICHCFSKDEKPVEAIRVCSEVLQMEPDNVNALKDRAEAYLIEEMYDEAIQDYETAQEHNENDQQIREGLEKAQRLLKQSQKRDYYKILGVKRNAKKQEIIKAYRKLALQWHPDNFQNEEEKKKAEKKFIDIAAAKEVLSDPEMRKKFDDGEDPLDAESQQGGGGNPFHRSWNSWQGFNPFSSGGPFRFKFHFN
UniProt O00429, whole entry, looked up: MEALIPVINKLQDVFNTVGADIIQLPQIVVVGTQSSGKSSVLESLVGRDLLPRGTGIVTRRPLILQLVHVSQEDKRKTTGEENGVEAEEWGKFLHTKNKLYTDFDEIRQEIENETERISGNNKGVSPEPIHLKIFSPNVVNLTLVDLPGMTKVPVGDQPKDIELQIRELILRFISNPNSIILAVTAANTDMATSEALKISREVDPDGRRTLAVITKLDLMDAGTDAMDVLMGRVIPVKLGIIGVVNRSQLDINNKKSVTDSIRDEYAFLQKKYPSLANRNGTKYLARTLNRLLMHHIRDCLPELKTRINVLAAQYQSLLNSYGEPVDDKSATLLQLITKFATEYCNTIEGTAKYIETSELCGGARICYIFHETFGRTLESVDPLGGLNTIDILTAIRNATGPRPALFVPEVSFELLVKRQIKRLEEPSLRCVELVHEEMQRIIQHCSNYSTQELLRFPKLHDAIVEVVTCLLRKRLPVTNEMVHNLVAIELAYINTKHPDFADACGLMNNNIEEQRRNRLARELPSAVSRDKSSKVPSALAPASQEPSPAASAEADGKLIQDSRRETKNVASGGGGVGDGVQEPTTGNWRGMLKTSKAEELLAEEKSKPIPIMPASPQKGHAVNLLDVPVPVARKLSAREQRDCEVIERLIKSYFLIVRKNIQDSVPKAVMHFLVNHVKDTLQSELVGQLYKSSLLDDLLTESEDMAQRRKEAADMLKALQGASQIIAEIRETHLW
UniProt Q14919: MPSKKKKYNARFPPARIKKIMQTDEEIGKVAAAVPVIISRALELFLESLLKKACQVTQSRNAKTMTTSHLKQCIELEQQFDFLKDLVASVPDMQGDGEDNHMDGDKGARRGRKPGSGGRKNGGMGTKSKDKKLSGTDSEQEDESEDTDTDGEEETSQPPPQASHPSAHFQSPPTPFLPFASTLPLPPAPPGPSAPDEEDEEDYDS
UniProt Q8WWZ3: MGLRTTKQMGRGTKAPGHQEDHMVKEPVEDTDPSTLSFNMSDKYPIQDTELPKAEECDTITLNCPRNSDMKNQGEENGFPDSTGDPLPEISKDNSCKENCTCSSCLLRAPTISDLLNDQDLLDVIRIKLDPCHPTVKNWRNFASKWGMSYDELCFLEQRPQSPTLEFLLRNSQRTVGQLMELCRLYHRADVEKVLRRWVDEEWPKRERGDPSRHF

Columns and labels:
Test in all cases: log2 fold change, soluble protein after heating vs DMSO (PISA); higher = thermal stabilisation; K562 cells, 10 uM, 30 min; active = over 0.2 and 3.5 SD of the protein, either way, in both replicates (recomputed)
bafetinib = compound: Cc1ccc(NC(=O)c2ccc(CN3CC[C@H](N(C)C)C3)c(C(F)(F)F)c2)cc1Nc1nccc(-c2cncnc2)n1 [bafetinib]
Outline: (§1)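 K562 cells (2×10^6 cells/mL) were treated with 10 μM compound for 30 min, and aliquots were heated for 3 min over 48°C-58°C. Pooled aliquots were extracted in PBS with 0.5% NP-40 at 4°C, and the supernatant after 21,000xg for 90 min was measured by TMTpro 16plex LC-MS/MS with channel sums equalised. Reported thermal stability, relative to control samples and from duplicates, is a log2 fold change.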

[1] = compound: Cc1cccc(CC(=O)N2CCc3c2ccc(-c2cn(C)c4ncnc(N)c24)c3F)n1
Outline: as §1

nilotinib = compound: Cc1cn(-c2cc(NC(=O)c3ccc(C)c(Nc4nccc(-c5cccnc5)n4)c3)cc(C(F)(F)F)c2)cn1 [nilotinib]
Outline: as §1

[2] = compound: Cc1nc(Nc2n[nH]c3c2CN(C(=O)N[C@H](CN(C)C)c2ccccc2)C3(C)C)c2sccc2n1
Outline: as §1

dasatinib = compound: Cc1nc(Nc2ncc(C(=O)Nc3c(C)cccc3Cl)s2)cc(N2CCN(CCO)CC2)n1 [dasatinib]
Outline: as §1

[3] = compound: Cc1ncc(-c2ccnc(Nc3ccc(S(C)(=O)=O)cc3)n2)n1C(C)C
Outline: as §1

[4] = compound: Cn1cc(-c2ccc3c(c2)CCN3C(=O)Cc2cccc(C(F)(F)F)c2)c2c(N)ncnc21
Outline: as §1

[5] = compound: Cn1cc(-c2ccc3nnc(C(F)(F)c4ccc5ncccc5c4)n3n2)cn1
Outline: as §1

tipifarnib = compound: Cn1cncc1[C@@](N)(c1ccc(Cl)cc1)c1ccc2c(c1)c(-c1cccc(Cl)c1)cc(=O)n2C [tipifarnib]
Outline: as §1

mubritinib = compound: FC(F)(F)c1ccc(/C=C/c2nc(COc3ccc(CCCCn4ccnn4)cc3)co2)cc1 [mubritinib]
Outline: as §1

[6] = compound: NC(=O)Nc1cc(-c2cccc(F)c2)sc1C(=O)N[C@H]1CCCNC1
Outline: as §1

[7] = compound: NC(=O)c1cnc(N[C@@H]2CCCC[C@@H]2N)nc1Nc1cccc(-n2nccn2)c1
Outline: as §1

[8] = compound: NC1(c2ccc(-c3nc4ccn5c(=O)[nH]nc5c4cc3-c3ccccc3)cc2)CCC1
Outline: as §1

[9] = compound: NCC(=O)Nc1ccc(-n2nc(C(F)(F)F)cc2-c2ccc3c(ccc4ccccc43)c2)cc1
Outline: as §1

entinostat = compound: Nc1ccccc1NC(=O)c1ccc(CNC(=O)OCc2cccnc2)cc1 [entinostat]
Outline: as §1

vorinostat = compound: O=C(CCCCCCC(=O)Nc1ccccc1)NO [vorinostat]
Outline: as §1

citarinostat = compound: O=C(CCCCCCNC(=O)c1cnc(N(c2ccccc2)c2ccccc2Cl)nc1)NO [citarinostat]
Outline: as §1

silmitasertib = compound: O=C(O)c1ccc2c(c1)nc(Nc1cccc(Cl)c1)c1ccncc12 [silmitasertib]
Outline: as §1

[10] = compound: O=C1NC(=O)C(c2cnc3ccccn23)=C1c1cn2c3c(cc(F)cc13)CN(C(=O)N1CCCCC1)CC2
Outline: as §1

[11] = compound: c1cc(OCCN2CCCCC2)cc(-c2n[nH]c3ccc(-c4nnc[nH]4)cc23)c1
Outline: as §1

Target	log2 fold change (bafetinib)	log2 fold change [1]	log2 fold change (nilotinib)	log2 fold change [2]	log2 fold change (dasatinib)	log2 fold change [3]	log2 fold change [4]	log2 fold change [5]	log2 fold change (tipifarnib)	log2 fold change (mubritinib)	log2 fold change [6]	log2 fold change [7]	log2 fold change [8]	log2 fold change [9]	log2 fold change (entinostat)	log2 fold change (vorinostat)	log2 fold change (citarinostat)	log2 fold change (silmitasertib)	log2 fold change [10]	log2 fold change [11]
DOCK7 (UniProt Q96N67)	inactive: 0.026	inactive: 0.023	inactive: 0.043	inactive: 0.131	inactive: 0	inactive: -0.079	inactive: 0.084	inactive: -0.023	inactive: -0.07	inactive: 0.052	inactive: -0.018	inactive: 0.019	inactive: -0.109	inactive: -0.032	inactive: 0.044	inactive: 0.017	inactive: 0.028	inactive: -0.06	inactive: -0.04	inactive: -0.069
EDEM3 (UniProt Q9BZQ6)	inactive: 0.048	inactive: 0.017	inactive: 0.021	inactive: 0.037	inactive: 0.044	inactive: -0.067	inactive: -0.097	inactive: -0.031	inactive: 0.016	inactive: 0.001	inactive: 0.034	inactive: -0.03	inactive: -0.076	inactive: 0.052	inactive: -0.04	inactive: 0.022	inactive: 0.011	inactive: 0.08	inactive: 0.025	inactive: -0.123
DNAJB1 (UniProt P25685)	inactive: -0.026	inactive: 0.013	inactive: -0.042	inactive: -0.058	inactive: -0.064	inactive: 0.026	inactive: 0.035	inactive: 0.02	inactive: -0.026	inactive: 0.01	inactive: -0.006	inactive: -0.041	inactive: -0.09	inactive: -0.083	inactive: 0.013	inactive: 0.034	inactive: 0.044	inactive: 0.011	inactive: -0.005	inactive: -0.04
DTYMK (UniProt P23919)	inactive: 0.044	inactive: 0.007	inactive: 0.042	inactive: 0.041	inactive: -0.151	inactive: -0.029	inactive: 0.045	inactive: 0.002	inactive: -0.019	inactive: 0.078	inactive: 0.005	inactive: -0.011	inactive: -0.169	inactive: -0.014	inactive: -0.035	inactive: 0.043	inactive: 0.047	inactive: -0.04	inactive: -0.058	inactive: -0.071
DPH6 (UniProt Q7L8W6)	inactive: -0.032	inactive: 0.168	inactive: -0.059	inactive: -0.008	inactive: -0.15	inactive: 0.005	inactive: 0.024	inactive: 0.002	inactive: -0.057	inactive: 0.027	inactive: -0.093	inactive: -0.036	inactive: -0.08	inactive: -0.038	inactive: 0.087	inactive: 0.065	inactive: 0.094	inactive: 0	inactive: -0.027	inactive: -0.031
DSC2 (UniProt Q02487)	inactive: -0.122	inactive: -0.143	inactive: 0.01	inactive: -0.073	inactive: -0.006	inactive: 0.182	inactive: -0.092	inactive: -0.101	inactive: 0.153	inactive: 0.071	inactive: -0.078	inactive: 0.04	inactive: -0.129	inactive: -0.061	inactive: -0.233	inactive: 0.083	inactive: 0.016	inactive: -0.006	inactive: 0.019	inactive: -0.027
DYNLRB1 (UniProt Q9NP97)	inactive: 0.031	inactive: -0.09	inactive: 0.051	inactive: 0.014	inactive: 0.043	inactive: 0.009	inactive: 0.1	inactive: 0.083	inactive: -0.036	inactive: 0.037	inactive: -0.011	inactive: -0.023	inactive: -0.01	inactive: -0.046	inactive: -0.004	inactive: -0.086	inactive: -0.049	inactive: -0.014	inactive: -0.192	inactive: -0.068
DNAJB12 (UniProt Q9NXW2)	inactive: -0.057	inactive: 0.007	inactive: -0.158	inactive: 0.041	inactive: -0.068	inactive: 0.015	inactive: -0.04	inactive: -0.039	inactive: 0.016	inactive: 0.01	inactive: -0.03	inactive: -0.018	inactive: -0.048	inactive: -0.029	inactive: 0.001	inactive: 0.027	inactive: 0.027	inactive: 0.079	inactive: -0.038	inactive: 0.002
DNAJC3 (UniProt Q13217)	inactive: 0.001	inactive: 0.002	inactive: 0.053	inactive: -0.002	inactive: 0.06	inactive: 0	inactive: -0.051	inactive: 0.049	inactive: 0.092	inactive: -0.058	inactive: -0.061	inactive: 0.071	inactive: -0.043	inactive: 0.015	inactive: -0.024	inactive: -0.006	inactive: 0	inactive: 0.045	inactive: -0.056	inactive: -0.039
DPP3 (UniProt Q9NY33)	inactive: -0.029	inactive: 0.012	inactive: -0.035	inactive: 0.012	inactive: -0.095	inactive: -0.056	inactive: 0.068	inactive: 0.034	inactive: -0.097	inactive: 0.082	inactive: -0.013	inactive: 0.013	inactive: -0.121	inactive: -0.035	inactive: -0.005	inactive: 0.111	inactive: 0.032	inactive: -0.043	inactive: -0.017	inactive: 0
DNM1L isoform 6 (UniProt O00429)	inactive: -0.076	inactive: -0.023	inactive: -0.084	inactive: -0.017	inactive: -0.055	inactive: 0.045	inactive: 0.05	inactive: 0.032	inactive: -0.038	inactive: -0.001	inactive: -0.046	inactive: -0.039	inactive: -0.096	inactive: -0.063	inactive: 0.012	inactive: 0.009	inactive: 0.028	inactive: 0.005	inactive: -0.007	inactive: 0.004
DRAP1 isoform 2 (UniProt Q14919)	inactive: -0.078	inactive: -0.021	inactive: -0.045	inactive: -0.014	inactive: -0.004	inactive: -0.005	inactive: -0.003	inactive: 0.03	inactive: 0.033	inactive: 0.017	inactive: -0.024	inactive: 0.052	inactive: -0.05	inactive: 0.025	inactive: -0.005	inactive: -0.097	inactive: 0	inactive: -0.016	inactive: -0.039	inactive: 0.022
EAF1 (UniProt Q96JC9)	inactive: -0.105	inactive: -0.107	inactive: 0.069	inactive: 0.02	inactive: 0.038	inactive: 0.041	inactive: -0.058	inactive: -0.025	inactive: 0.077	inactive: 0.041	inactive: -0.167	inactive: -0.037	inactive: 0.037	inactive: 0.024	inactive: 0.03	inactive: -0.186	inactive: -0.045	inactive: -0.003	inactive: -0.024	inactive: 0.051
EDARADD (UniProt Q8WWZ3)	inactive: -0.089	inactive: -0.044	inactive: 0.051	inactive: -0.022	inactive: -0.032	inactive: -0.033	inactive: 0.035	inactive: 0.066	inactive: -0.011	inactive: 0.078	inactive: -0.081	inactive: 0.004	inactive: 0.018	inactive: 0.136	inactive: -0.008	inactive: -0.017	inactive: 0.005	inactive: 0.047	inactive: -0.073	inactive: 0.011
DUS3L (UniProt Q96G46)	inactive: -0.041	inactive: -0.02	inactive: -0.073	inactive: -0.059	inactive: -0.005	inactive: 0.021	inactive: -0.064	inactive: -0.017	inactive: 0.053	inactive: -0.115	inactive: 0.113	inactive: -0.012	inactive: 0.194	inactive: 0.003	inactive: 0.003	inactive: 0.093	inactive: 0.058	inactive: 0.112	inactive: -0.176	inactive: -0.029
DTWD1 (UniProt Q8N5C7)	inactive: 0.006	inactive: -0.014	inactive: 0.057	inactive: 0	inactive: 0.001	inactive: 0.082	inactive: 0.051	inactive: -0.027	inactive: -0.02	inactive: 0.02	inactive: -0.001	inactive: 0.014	inactive: -0.147	inactive: -0.04	inactive: 0.063	active: 0.246	inactive: -0.001	inactive: -0.004	inactive: 0.014	inactive: -0.064

Part of the list above, set out differently.
Target | log2 fold change (bafetinib) | log2 fold change [1] | log2 fold change (nilotinib) | log2 fold change [2] | log2 fold change (dasatinib) | log2 fold change [3] | log2 fold change [4] | log2 fold change [5] | log2 fold change (tipifarnib) | log2 fold change (mubritinib) | log2 fold change [6] | log2 fold change [7] | log2 fold change [8] | log2 fold change [9] | log2 fold change (entinostat) | log2 fold change (vorinostat) | log2 fold change (citarinostat) | log2 fold change (silmitasertib) | log2 fold change [10] | log2 fold change [11]
EDEM3 (UniProt Q9BZQ6) | inactive: 0.048 | inactive: 0.017 | inactive: 0.021 | inactive: 0.037 | inactive: 0.044 | inactive: -0.067 | inactive: -0.097 | inactive: -0.031 | inactive: 0.016 | inactive: 0.001 | inactive: 0.034 | inactive: -0.03 | inactive: -0.076 | inactive: 0.052 | inactive: -0.04 | inactive: 0.022 | inactive: 0.011 | inactive: 0.08 | inactive: 0.025 | inactive: -0.123
DPP3 (UniProt Q9NY33) | inactive: -0.029 | inactive: 0.012 | inactive: -0.035 | inactive: 0.012 | inactive: -0.095 | inactive: -0.056 | inactive: 0.068 | inactive: 0.034 | inactive: -0.097 | inactive: 0.082 | inactive: -0.013 | inactive: 0.013 | inactive: -0.121 | inactive: -0.035 | inactive: -0.005 | inactive: 0.111 | inactive: 0.032 | inactive: -0.043 | inactive: -0.017 | inactive: 0
DNM1L isoform 6 (UniProt O00429) | inactive: -0.076 | inactive: -0.023 | inactive: -0.084 | inactive: -0.017 | inactive: -0.055 | inactive: 0.045 | inactive: 0.05 | inactive: 0.032 | inactive: -0.038 | inactive: -0.001 | inactive: -0.046 | inactive: -0.039 | inactive: -0.096 | inactive: -0.063 | inactive: 0.012 | inactive: 0.009 | inactive: 0.028 | inactive: 0.005 | inactive: -0.007 | inactive: 0.004
EDARADD (UniProt Q8WWZ3) | inactive: -0.089 | inactive: -0.044 | inactive: 0.051 | inactive: -0.022 | inactive: -0.032 | inactive: -0.033 | inactive: 0.035 | inactive: 0.066 | inactive: -0.011 | inactive: 0.078 | inactive: -0.081 | inactive: 0.004 | inactive: 0.018 | inactive: 0.136 | inactive: -0.008 | inactive: -0.017 | inactive: 0.005 | inactive: 0.047 | inactive: -0.073 | inactive: 0.011
